Laboratory results as given in PMC9550257.
No constants are given. Whether binding was seen depends on the method and setting. In cells and extracts the contact can be indirect. Some binding calls cover weakened binding; strength is not graded here.

The chains behind the UniProt entries cited, without tags or fusion partners.
UniProt Q93009: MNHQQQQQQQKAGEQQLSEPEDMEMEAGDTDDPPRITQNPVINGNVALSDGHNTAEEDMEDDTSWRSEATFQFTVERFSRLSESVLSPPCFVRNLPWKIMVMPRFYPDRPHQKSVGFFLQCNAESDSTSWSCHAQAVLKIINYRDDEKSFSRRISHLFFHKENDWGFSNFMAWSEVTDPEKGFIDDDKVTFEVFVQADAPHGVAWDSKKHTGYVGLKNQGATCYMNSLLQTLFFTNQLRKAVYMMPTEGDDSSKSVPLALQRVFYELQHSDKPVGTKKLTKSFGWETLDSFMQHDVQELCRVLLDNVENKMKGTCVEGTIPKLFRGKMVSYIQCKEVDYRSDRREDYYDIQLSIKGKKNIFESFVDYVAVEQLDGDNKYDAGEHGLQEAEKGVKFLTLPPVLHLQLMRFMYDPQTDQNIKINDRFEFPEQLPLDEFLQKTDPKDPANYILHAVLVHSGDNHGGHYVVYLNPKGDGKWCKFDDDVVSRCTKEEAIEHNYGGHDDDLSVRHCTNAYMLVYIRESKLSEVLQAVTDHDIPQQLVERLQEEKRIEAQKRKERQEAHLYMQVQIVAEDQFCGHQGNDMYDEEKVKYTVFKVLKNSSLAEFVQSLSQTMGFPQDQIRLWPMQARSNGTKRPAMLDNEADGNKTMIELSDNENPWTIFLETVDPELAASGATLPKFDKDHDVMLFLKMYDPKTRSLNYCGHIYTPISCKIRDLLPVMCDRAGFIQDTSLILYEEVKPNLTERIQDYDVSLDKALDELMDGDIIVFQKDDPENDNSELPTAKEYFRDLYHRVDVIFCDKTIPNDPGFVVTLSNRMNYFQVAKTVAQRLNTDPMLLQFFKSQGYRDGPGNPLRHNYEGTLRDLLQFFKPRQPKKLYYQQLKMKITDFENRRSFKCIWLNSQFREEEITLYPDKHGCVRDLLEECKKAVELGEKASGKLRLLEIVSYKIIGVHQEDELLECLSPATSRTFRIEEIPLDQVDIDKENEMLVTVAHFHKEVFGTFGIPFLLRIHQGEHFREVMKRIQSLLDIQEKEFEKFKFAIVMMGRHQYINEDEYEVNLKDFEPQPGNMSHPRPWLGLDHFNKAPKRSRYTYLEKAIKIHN
UniProt O15205: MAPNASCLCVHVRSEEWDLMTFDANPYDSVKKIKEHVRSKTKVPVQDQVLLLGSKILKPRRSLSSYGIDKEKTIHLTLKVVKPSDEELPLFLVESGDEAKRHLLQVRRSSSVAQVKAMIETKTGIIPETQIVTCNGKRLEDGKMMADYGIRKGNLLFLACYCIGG

Legend:
[1] = target: USP7 (construct of the competitive GST pull-down) (UniProt Q93009); test: pull-down; called GST pull-down; HEK-293T cells transfected with the indicated constructs, lysed, IP with anti-His beads, GST binding detected; competition of Ub and FAT10 for USP7
[2] = target: T1, checkpoint kinase 1 (CHK1) (human (in HK-2 cells)) (UniProt O14757); test: co-IP; HK-2 cells; FAT10 and CHK1 (Supplementary Figure 4)
T1 sequence: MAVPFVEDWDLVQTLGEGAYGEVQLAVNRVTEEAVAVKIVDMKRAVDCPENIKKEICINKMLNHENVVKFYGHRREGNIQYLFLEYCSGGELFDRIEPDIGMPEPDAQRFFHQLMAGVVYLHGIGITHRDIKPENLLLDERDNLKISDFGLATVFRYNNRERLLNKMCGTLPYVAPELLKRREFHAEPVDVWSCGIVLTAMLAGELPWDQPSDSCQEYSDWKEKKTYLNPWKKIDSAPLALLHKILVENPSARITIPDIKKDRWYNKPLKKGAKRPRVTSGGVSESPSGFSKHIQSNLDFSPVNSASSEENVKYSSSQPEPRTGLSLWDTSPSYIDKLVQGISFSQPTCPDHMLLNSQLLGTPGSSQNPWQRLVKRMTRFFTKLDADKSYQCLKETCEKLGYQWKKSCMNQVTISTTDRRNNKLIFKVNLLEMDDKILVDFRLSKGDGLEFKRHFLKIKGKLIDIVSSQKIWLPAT

[3] = target: human leukocyte antigen-F adjacent transcript 10 (FAT10) (human (endogenous in HK-2)) (UniProt O15205); test: co-IP; HK-2 cells, with antibodies to endogenous USP7 and FAT10 (Supplementary Figure 5A)

FAT10 (construct of the competitive GST pull-down) (from UniProt O15205 1-165)
binding [1]: binds

human leukocyte antigen-F adjacent transcript 10 (FAT10) (from UniProt O15205 1-165)
binding [2]: no binding

ubiquitin specific protease 7 (USP7) (from UniProt Q93009 1-1102) (enzyme)
binding [3]: binds
